Experiment [1] has as its system WSU-DLCL2 (Human Diffuse Large B Cell Lymphoma -GCB). Nature of the experiment: CellTiterGlo cell viability assay. The format is cell-based. The settings on record: WSUDLCL2, 72 h, three-day assay. (In general: In ATP-based viability assays light output follows the ATP content of the culture.)
Experiment [2] relates to SUDHL-4 (Human Diffuse Large B Cell Lymphoma -GCB). Nature of the experiment: CellTiterGlo cell viability assay. The format is cell-based. The settings on record: 72 h, SU-DHL-4, three-day assay.

Take `CCN(c1cc(-c2ccc(CN3CCOCC3)cc2)cc(C(=O)NCc2c(C)cc(C)[nH]c2=O)c1C)C1CCOCC1` [EPZ-6438]: the IC50 in experiment [1] was over 10000 nM; in experiment [2], over 20000 nM.

For orientation: IC50 means the midpoint of a concentration-inhibition curve. A low value points to greater potency.

Values taken from patent publication US10350213B2 (AI Therapeutics, Inc., priority 2015, dated 2019).
